Earlier results, collected in patent US20050124660A1, “Novel medical uses of compounds showing CB1-antagonistic activity and combination treatment involving said compounds” (priority 2003, published 2005).
Some results were stated once for a whole list of compounds, not compound by compound. At least one compound was matched to its structure with a doubt left. Some compounds share one range, which may span the group rather than tell each member.

What was measured:
[1] = molecular target: T1, porcine pancreatic lipase (Sus scrofa, UniProt P00591); settings: relative to THL; cited from earlier work
T1 sequence (P00591 1-450): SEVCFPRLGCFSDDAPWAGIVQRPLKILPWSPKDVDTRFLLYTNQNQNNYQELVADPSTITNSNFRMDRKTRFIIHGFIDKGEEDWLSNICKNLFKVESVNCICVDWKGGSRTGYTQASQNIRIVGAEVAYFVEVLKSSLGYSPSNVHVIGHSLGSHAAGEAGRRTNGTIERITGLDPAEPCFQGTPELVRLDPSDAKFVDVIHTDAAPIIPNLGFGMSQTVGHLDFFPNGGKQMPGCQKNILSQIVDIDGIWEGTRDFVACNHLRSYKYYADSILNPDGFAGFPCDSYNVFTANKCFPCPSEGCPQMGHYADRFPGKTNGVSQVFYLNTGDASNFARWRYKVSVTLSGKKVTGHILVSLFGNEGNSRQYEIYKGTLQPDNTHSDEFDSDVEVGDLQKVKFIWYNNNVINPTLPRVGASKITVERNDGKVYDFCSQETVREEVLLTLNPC

[2] = system: plasma lipases; settings: relative to THL; cited from earlier work

| SMILES | inhibitory activity, fold weaker than that of THL [1] | inhibitory activity on plasma lipases, fold greater than THL [2] |
| --- | --- | --- |
| CCCCCCC[C@@H](C[C@@H]1OC(=O)[C@H]1CCCCCCCC(C)C)OC(=O)[C@H](C)NC=O [Panclicin A] | 2-3 fold |  |
| CCCCCCC[C@@H](C[C@@H]1OC(=O)[C@H]1CCCCCCCC(C)C)OC(=O)CNC=O [Panclicin C] |  | 3-6 fold |
| CCCCCCCCCC[C@@H]1C(=O)O[C@H]1C[C@H](CCCCCCC)OC(=O)CNC=O [Panclicin D] |  | 3-6 fold |
| CCCCCCCCCCCC[C@@H]1C(=O)O[C@H]1C[C@H](CCCCCCC)OC(=O)CNC=O [Panclicin E] |  | 3-6 fold |
